In patent US20220074941A1, “HSP90 COMBINATION THERAPY” (Sloan-Kettering Institute for Cancer Research, priority 2011, published 2022):

B1: RAB3GAP1 (protein, UniProt Q15042 1-981, looked up)
Rab3 GTPase-activating …: MAADSEPESEVFEITDFTTASEWERFISKVEEVLNDWKLIGNSLGKPLEKGIFTSGTWEEKSDEISFADFKFSVTHHYLVQESTDKEGKDELLEDVVPQSMQDLLGMNNDFPPRAHCLVRWYGLREFVVIAPAAHSDAVLSESKCNLLLSSVSIALGNTGCQVPLFVQIHHKWRRMYVGECQGPGVRTDFEMVHLRKVPNQYTHLSGLLDIFKSKIGCPLTPLPPVSIAIRFTYVLQDWQQYFWPQQPPDIDALVGGEVGGLEFGKLPFGACEDPISELHLATTWPHLTEGIIVDNDVYSDLDPIQAPHWSVRVRKAENPQCLLGDFVTEFFKICRRKESTDEILGRSAFEEEGKETADITHALSKLTEPASVPIHKLSVSNMVHTAKKKIRKHRGVEESPLNNDVLNTILLFLFPDAVSEKPLDGTTSTDNNNPPSESEDYNLYNQFKSAPSDSLTYKLALCLCMINFYHGGLKGVAHLWQEFVLEMRFRWENNFLIPGLASGPPDLRCCLLHQKLQMLNCCIERKKARDEGKKTSASDVTNIYPGDAGKAGDQLVPDNLKETDKEKGEVGKSWDSWSDSEEEFFECLSDTEELKGNGQESGKKGGPKEMANLRPEGRLYQHGKLTLLHNGEPLYIPVTQEPAPMTEDLLEEQSEVLAKLGTSAEGAHLRARMQSACLLSDMESFKAANPGCSLEDFVRWYSPRDYIEEEVIDEKGNVVLKGELSARMKIPSNMWVEAWETAKPIPARRQRRLFDDTREAEKVLHYLAIQKPADLARHLLPCVIHAAVLKVKEEESLENISSVKKIIKQIISHSSKVLHFPNPEDKKLEEIIHQITNVEALIARARSLKAKFGTEKCEQEEEKEDLERFVSCLLEQPEVLVTGAGRGHAGRIIHKLFVNAQRAAAMTPPEEELKRMGSPEERRQNSVSDFPPPAGREFILRTTVPRPAPYSKALPQRMYSVLTKEDFRLAGAFSSDTSFF
B2: RAB11B (protein, UniProt Q15907 2-215, looked up)
Ras-related protein Rab-11B: GTRDDEYDYLFKVVLIGDSGVGKSNLLSRFTRNEFNLESKSTIGVEFATRSIQVDGKTIKAQIWDTAGQERYRAITSAYYRGAVGALLVYDIAKHLTYENVERWLKELRDHADSNIVIMLVGNKSDLRHLRAVPTDEARAFAEKNNLSFIETSALDSTNVEEAFKNILTEIYRIVSQKQIADRAAHDESPGNNVVDISVPPTTDGQKPNKLQCC
B3: TBC1D15 (protein, UniProt Q8TC07 2-691, looked up)
TBC1 domain family member 15: AAAGVVSGKIIYEQEGVYIHSSCGKTNDQDGLISGILRVLEKDAEVIVDWRPLDDALDSSSILYARKDSSSVVEWTQAPKERGHRGSEHLNSYEAEWDMVNTVSFKRKPHTNGDAPSHRNGKSKWSFLFSLTDLKSIKQNKEGMGWSYLVFCLKDDVVLPALHFHQGDSKLLIESLEKYVVLCESPQDKRTLLVNCQNKSLSQSFENLLDEPAYGLIQAGLLDRRKLLWAIHHWKKIKKDPYTATMIGFSKVTNYIFDSLRGSDPSTHQRPPSEMADFLSDAIPGLKINQQEEPGFEVITRIDLGERPVVQRREPVSLEEWTKNIDSEGRILNVDNMKQMIFRGGLSHALRKQAWKFLLGYFPWDSTKEERTQLQKQKTDEYFRMKLQWKSISQEQEKRNSRLRDYRSLIEKDVNRTDRTNKFYEGQDNPGLILLHDILMTYCMYDFDLGYVQGMSDLLSPLLYVMENEVDAFWCFASYMDQMHQNFEEQMQGMKTQLIQLSTLLRLLDSGFCSYLESQDSGYLYFCFRWLLIRFKREFSFLDILRLWEVMWTELPCTNFHLLLCCAILESEKQQIMEKHYGFNEILKHINELSMKIDVEDILCKAEAISLQMVKCKELPQAVCEILGLQGSEVTTPDSDVGEDENVVMTPCPTSAFQSNALPTLSASGARNDSPTQIPVSSDVCRLTPA

Assays:
[1] = test system: Hsp90 complexes in K562 cell extract; assay: Nano-LC-MS/MS of PU-beads pull-downs; type: binding; conditions: protein identified in PU-beads pull-down of K562 extract, QSTAR-Elite QTof MS
Summary of the method: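 Proteins were identified by data-dependent nano LC-MS/MS (QTof, ESI) and Mascot searching (p<0.05), then reported as spectral counts and coverage via Scaffold. Inputs were PU-bead versus control-bead pull-downs from lysate pre-cleared with control beads overnight at 4 °C, eluted by boiling in 2% SDS.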

[2] = test system: Hsp90 complexes in Mia-PaCa-2 cell extract; assay: Nano-LC-MS/MS of PU-beads pull-downs; type: binding, human; conditions: protein identified in PU-beads pull-down of Mia-Paca 2 extract; QSTAR-Elite QTof MS
Summary of the method: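 They came from PU-bead pull-downs of pre-cleared lysates (control beads, overnight, 4 °C), eluted by boiling in 2% SDS, gel-separated and run by data-dependent nano-ESI QTof MS/MS.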

Molecule	Number of Assigned Spectra, K562 Prep 1 [1]	Number of Assigned Spectra, K562 Prep 2 [1]	Number of Assigned Spectra, Mia-Paca 2 [2]
B1	9	6	3
B2	6	1	0
B3	6	4	4
